Out of some 140,000 compounds screened, about 4,300 (3.1%) were called active. Inconclusive means that the source gave no clear call. Such entries were picked first, then a sample of the others.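 Rule for the calls: active = readout at or below -70, meaning at least 70% loss of cells showing the perinucleolar compartment, a nuclear body marking cancer cells; inconclusive = readout between -30 and a set limit; inactive = the rest.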
experiment: High Content Assay for Compounds that inhibit the Assembly of the Perinucleolar Compartment; settings: PC3M PTB-GFP, PNC prevalence imaging, 16 h; at 10 µM; hits give low values;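 note: plate controls were DMSO wells for no effect and camptothecin positive control wells for full effect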
Procedure, shortened: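 PC3M cells stably expressing PTB-GFP, 750–1000 cells/well, treated 16 h at 37 °C with compound (23 nl of library stock), in duplicate. After paraformaldehyde fixation and Hoechst stain, imaged at 20x; PNC prevalence scored by image analysis.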

Row | SMILES | activity change (PNC), negative = inhibition
1 | CCn1c(CCNC(=O)c2ccccc2Cl)n[nH]c1=S | inactive: -20.6%
2 | Cc1nc(SCC(=O)NCc2ccccc2)c2oc3ccccc3c2n1 | inactive: 11.2%
3 | c1ccc2oc(SCc3nc4ccccc4s3)nc2c1 | inconclusive: -41.7%
4 | Cc1cc(=O)[nH]c(SCCOc2ccc3c(c2)CCC3)n1 | inactive: 17.5%
5 | O=C(NCC(=O)N(c1ccc(F)cc1)C(C(=O)NCC1CCCO1)c1ccccc1)c1ccco1 (configuration not stated) | inconclusive: -36.8%
6 | COc1ccc(C(O)P(=O)(OC2CCCCC2)c2ccc(N(C)C)cc2)cc1OC (configuration not stated) | inactive: -6.29%
7 | O=C(c1ccccc1)N1CCN(c2ccc(NCc3ccc4c(c3)OCO4)cc2)CC1 | inconclusive: -41.6%
8 | CC1CCN(S(=O)(=O)c2cn(CC(=O)N3CC(C)CC(C)C3)c(=O)c3ccccc23)CC1 (configuration not stated) | inactive: -12.2%
9 | CC1CCCN(C(=O)CSc2nnc(-c3c[nH]c4ccccc34)o2)C1 (configuration not stated) | inconclusive: -47.5%
10 | COc1ccccc1C(=O)NCc1ccncc1 | inconclusive: -36.7%
11 | Nc1nc(SCCN2C(=O)c3ccccc3C2=O)n[nH]1 | inconclusive: -38%
12 | Clc1cc2cccnc2c2ccccc12 | inconclusive: -48.2%
13 | N#C/C(=C\c1cn(CCOc2ccccc2)c2ccccc12)C(=O)NCc1cccs1 | inconclusive: -42.7%
14 | O=C(c1cnn2ccccc12)N1CCc2ccccc21 | inconclusive: -50.5%
15 | CCn1c(C)c2c(C)nnc(C)c2c1C | inconclusive: -37.6%
16 | COCCNC(=O)Cn1cnc2sc(C)c(S(=O)(=O)N3CCC(C)CC3)c2c1=O | inactive: -6.81%
17 | CC(C)CN(CC(C)C)S(=O)(=O)N1CCC(C(=O)N2CCc3ccccc3C2)CC1 | inactive: -5.91%
18 | CCCCc1n[nH]c2c1/C(=N/O)CC(c1ccccc1)C2 (configuration not stated) | inactive: 33.9%
19 | COc1ccc(S(=O)(=O)n2oc(=O)cc2-c2ccccc2)cc1 | inconclusive: -54.7%
20 | CCOC(=O)N1CCN(S(=O)(=O)c2ccc(OC)c(Cl)c2Cl)CC1 | inactive: 17.1%
21 | COCCN(C(C)=O)c1nnc(-c2ccccn2)s1 | inconclusive: -49.7%
22 | O=S(=O)(c1cccs1)n1nnc2ccccc21 | inconclusive: -35.9%
23 | Cc1nn(Cc2ccc(F)cc2)c2sc(C(=O)Nc3ccc(N4CCOCC4)cc3N3CCOCC3)cc12 | inactive: 11.6%

Given in markdown: 2 of the compounds above.

| Row | SMILES | activity change (PNC), negative = inhibition |
| --- | --- | --- |
| 9 | CC1CCCN(C(=O)CSc2nnc(-c3c[nH]c4ccccc34)o2)C1 (configuration not stated) | inconclusive: -47.5% |
| 15 | CCn1c(C)c2c(C)nnc(C)c2c1C | inconclusive: -37.6% |

Two compounds picked at random from those above, as already listed:
Row | SMILES | activity change (PNC), negative = inhibition
5 | O=C(NCC(=O)N(c1ccc(F)cc1)C(C(=O)NCC1CCCO1)c1ccccc1)c1ccco1 (configuration not stated) | inconclusive: -36.8%
19 | COc1ccc(S(=O)(=O)n2oc(=O)cc2-c2ccccc2)cc1 | inconclusive: -54.7%

The list continues.

Row | SMILES | activity change (PNC), negative = inhibition
24 | CC1(C(=O)N/N=C/c2ccc([N+](=O)[O-])o2)CC1(Br)Br (configuration not stated) | inconclusive: -54.5%
25 | COc1ccc(-c2csc(N3CCN(C(=O)c4ccccc4)CC3)n2)cc1 | inactive: 3.92%
26 | CC(C)N(C)NC(=S)Nc1ccccc1 | inconclusive: -48%
27 | CCCn1c(NCc2ccc(N(C)C)cc2)nc2ccccc21 | inconclusive: -70.5%
28 | CCOC(=O)C1CCN(S(=O)(=O)c2ccc(C(C)=O)cc2)CC1 | active: -100%
29 | COc1ccc(-c2nc(CSCC(=O)NCc3ccc4c(c3)OCO4)c(C)o2)cc1OC | active: -92%
30 | Cc1nc(NC(=O)CN2CCOCC2)sc1-c1ccccc1 | inconclusive: -42.6%
31 | CCc1ccccc1-n1c(SCC(=O)Nc2ccc3c(c2)OCCO3)nc2[nH]ncc2c1=O | inactive: -21.2%
32 | COc1ccccc1NC(=O)N1CCCC1C(=O)NC1CCCCC1 (configuration not stated) | inconclusive: -47.8%
33 | Cc1nc(SCc2ccccc2C)n[nH]1 | inconclusive: -34.6%
34 | Cc1ccc(N2CC3=C(C2=O)C(c2ccccc2)NC(=O)N3C)cc1 (configuration not stated) | inactive: -23.9%
35 | COc1ccc(-c2nc(CS(=O)CC(=O)NCc3ccco3)c(C)o2)cc1 (configuration not stated) | inconclusive: -36.9%
36 | Cc1nc(NC(=O)C23CCC(C)(C(=O)O2)C3(C)C)sc1C (configuration not stated) | inconclusive: -38.1%
37 | O=[N+]([O-])c1ccc(C2CNC(c3ccccc3)O2)cc1 (configuration not stated) | inconclusive: -49.7%
38 | CCOC(=O)CC1C(=O)NCCN1C(=O)COc1ccc(Br)cc1C (configuration not stated) | inconclusive: -68%
39 | O=S(=O)(NCCc1ccc2c(c1)OCCO2)c1cccs1 | active: -81.3%
40 | O=C(Nc1cccc(-c2nnc(-c3ccccc3)o2)c1)C1CCCCC1 | inconclusive: -42.3%
41 | COc1ccc(O)c(/C=N/NC(=S)Nc2cccc(S(=O)(=O)N(C)C)c2)c1 | inactive: 59.6%
42 | CN(Cc1nc2ccccc2n1C)S(C)(=O)=O | inconclusive: -60.2%
43 | Cc1ccc([N+](=O)[O-])cc1-c1[nH]c(-c2ccc(O)c(O)c2)nc1-c1ccccc1 | inactive: 5.38%
44 | COc1cc2c3c(c1)C1(C(=O)N3C(C)(C)C=C2C)C(C#N)=C(N)Oc2cc(O)ccc21 (configuration not stated) | inconclusive: -50%
45 | O=S1(=O)CCC(NC(=S)N2CCCCC2)C1 (configuration not stated) | inactive: 75.9%
46 | O=C1Nc2ccccc2/C1=C\c1cccn1-c1ccc(OC(F)(F)F)cc1 | inactive: 35.6%

Row | SMILES | activity change (PNC), negative = inhibition
47 | CCCCn1c(N)c(N(CCOC)C(=O)CCc2ccc(OC)cc2)c(=O)[nH]c1=O | inconclusive: -30.7%
48 | COc1ccc(C(=O)CSc2nnc(CNc3ccc(C)cc3C)o2)cc1 | inconclusive: -66.4%
49 | O=C(O)c1cccc(NC(=O)c2ccc3c(c2)C(=O)N(CC2CCCO2)C3=O)c1 (configuration not stated) | inconclusive: -45.1%
50 | CN1C(=O)c2oc3ccc(Br)cc3c(=O)c2C1c1ccncc1 (configuration not stated) | inconclusive: -32.3%
51 | O=C(O)c1ccccc1C(=O)Nc1ccc(-c2csc(-c3ccccc3)n2)cc1 | active: -98.4%
52 | CCCCCC(C)NC(=S)NC(=O)c1cc(S(=O)(=O)N2CCOCC2)ccc1C (configuration not stated) | inconclusive: -33.8%
53 | S=C(c1ccc(-c2cccc(Cl)c2)o1)N1CCOCC1 | inactive: 22.3%
54 | O=C(Nc1nc(-c2ccccn2)cs1)C1CC(=O)N(c2ccc3c(c2)OCCO3)C1 (configuration not stated) | inconclusive: -57.8%
55 | Cc1cccc(Cc2cnc(N3C(=N)SC(c4ccccc4)C3=O)s2)c1 (configuration not stated) | inconclusive: -39.8%
56 | Cc1ccc(CNC(=O)C2CC(=O)N(c3ccc(OCC(=O)N4CCCC4)cc3)C2)cc1 (configuration not stated) | inconclusive: -38.8%
57 | Fc1ccc(Nc2cccc3nccnc23)cc1 | inconclusive: -59.3%
58 | Cc1cc(NC(=O)CCCC(=O)NCc2cccs2)no1 | inactive: 22.8%
59 | COc1ccccc1N1CCN(S(=O)(=O)c2ccc(Cl)s2)CC1 | inconclusive: -30.3%
60 | Cc1nn(-c2ccccc2)c(N)c1C1(O)C(=O)N(C(C)C)c2ccccc21 (configuration not stated) | inconclusive: -31.4%
61 | O=C(C(NS(=O)(=O)c1cccs1)c1ccccc1)N1CCN(c2ccccc2F)CC1 (configuration not stated) | inconclusive: -68.8%
62 | Cc1ccc(C2C(C#N)=C(N)SC(N)=C2C#N)c(C)c1 | inactive: -15.2%
63 | CCCCOc1ccc(NC(=S)Nc2cc(C)nc(SCCCC)n2)cc1 | inactive: -15.6%
64 | Cc1oc(-c2ccccc2F)nc1CS(=O)(=O)CC(=O)NCCCc1ccccc1 | inconclusive: -39.7%
65 | CC(C)C1S/C(=N/N=C/c2cccs2)NC1=O (configuration not stated) | inconclusive: -56.6%
66 | Cc1nc2ccccc2cc1C(=O)N/N=C/c1ccccc1[N+](=O)[O-] | inconclusive: -68.5%
67 | COc1cc(OC)c(OC)cc1CN1CCCC(C(=O)N2CCCCC2)C1 (configuration not stated) | inconclusive: -44.6%
68 | Cc1cccc(-n2nc3c(c2NC(=O)c2ccc(Br)o2)CSC3)c1 | inconclusive: -37.6%
69 | CCN(CC)c1ccc(/C=N/Nc2cccc(C)c2)c(O)c1 | inconclusive: -79.8%

Row | SMILES | activity change (PNC), negative = inhibition
70 | CCn1c(Cc2ccc(OC)cc2)nnc1SCC(=O)N1CCN(c2ccccc2)CC1 | inconclusive: -43.9%
71 | CCCSc1ccc2nc(-c3ccccc3)cn2c1 | inactive: -3.52%
72 | C=CCc1c(C)nc(C)nc1N/N=C/c1ccccc1O | inconclusive: -44.2%
73 | O=C(C1CC1)N(Cc1ccco1)c1nc(-c2ccccc2)cs1 | inactive: 34.7%
74 | Cc1nc2c(C)cccc2cc1C(=O)N/N=C/c1cccnc1 | inconclusive: -65.6%
75 | COc1ccc(-c2coc3cc4oc(=O)c5ccccc5c4cc23)cc1F | active: -81.3%
76 | COC(=O)c1ccccc1NC(=O)N1CCN(S(=O)(=O)c2ccc(Cl)cc2)CC1 | inconclusive: -57.7%
77 | O=C(O)C1CCCNC1 (configuration not stated) | active: -82.7%
78 | CCc1ncc(C(O)c2cccc(OC)c2OC)n1C (configuration not stated) | inconclusive: -66.2%
79 | COc1cccc(S(=O)(=O)N2CCN(c3ccccc3F)CC2)c1 | inconclusive: -50.8%
80 | COC(=O)c1[nH]c2ccc(C)cc2c1NC(=O)CN1CCCC(C)(C)C1 | inconclusive: -39.2%
81 | COP(=O)(OC)c1nc(-c2cccc3ccccc23)oc1NCCc1ccccc1 | active: -91.4%
82 | Cc1nnc(SC2CC(=O)N(c3ccccc3)C2=O)s1 (configuration not stated) | inactive: -23.2%
83 | CC(=O)c1ccc(N2CCN(C(=O)c3ccc(Br)cc3)CC2)c(F)c1 | inconclusive: -41.4%
84 | COc1ccc2cc3cc(C(=O)NCc4ccco4)oc3nc2c1 | inactive: -8.23%
85 | CC(C)(C)NC(=O)c1ccccc1-c1nc(-c2ccccc2Cl)no1 | inactive: -9.16%
86 | CCCN1C(=S)SC(C)(C)C1/[N+]([O-])=C/c1cccnc1 (configuration not stated) | inactive: 24%
87 | COCCNC(=O)c1onc(CSc2cc(C)ccc2C)c1C(=O)O | inconclusive: -40.2%
88 | CN1C(=O)N(CN2CCCCC2)C2C1N(C)C(=O)N2CN1CCCCC1 (configuration not stated) | inconclusive: -30.1%
89 | c1coc(-c2nnc(-c3cccs3)o2)c1 | inactive: -17.5%
90 | Fc1ccc(CSc2nncn2NC/C=C/c2ccccc2)cc1 | active: -83.2%
91 | O=C(C1Cc2ccccc2CN1S(=O)(=O)c1cccs1)N1CCCCC1 (configuration not stated) | inconclusive: -57.3%
92 | Cn1ncc(Cl)c1C(=O)NC(=S)Nc1sc2c(c1C#N)CCCCC2 | inactive: 84.8%
